# Experimental data published in PubChem BioAssay AID1487 (National Center for Advancing Translational Sciences (NCATS), 2009).
# The list shows a part of the results. Further columns of the screen follow, without active or inactive calls. Most of these compounds were active or inconclusive in the main read-out, so they are no random draw. The note in brackets gives the kind of curve behind each potency; many fits are weak.
# Test: qHTS Assay for Modulators of Lamin A Splicing
# Conditions: HeLa LMNA splicing GFP/RFP minigene ratio, 48 h
# How it was run: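 S3 HeLa cells stably expressing lamin A-EGFP splicing minigene plus DsRed2, 600 cells/well, 48 h compound exposure at 37C. Laser-scanning cytometry; analysed as GFP (500-530 nm)/RFP (575-640 nm) total intensity ratio; 0.5% DMSO vehicle.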
# [1] = measured here: RFP viability control channel
# [2] = measured here: GFP splicing reporter channel
SMILES,AC50 [1],AC50 [2]
O=c1c(-c2cccs2)nc2cnc(N3CCNCC3)nc2n1Cc1cccs1,"15.8 µM [falling, partial curve]",
CC(Oc1ccc(Cl)cc1Cl)C(=O)NNC(=O)C(=O)N1CCCCC1 (stereo unspecified),"22.4 µM [rising, single point]","35.5 µM [rising, single point]"
CC(N)=O,"0.00562 µM [falling, full curve, poor fit]",
O=C1CCN2C=Nc3cccc4ccc1c2c34,"5.62 µM [falling, partial curve, poor fit]","8.91 µM [falling, partial curve, poor fit]"
CC(C)C(=O)Nc1ccc(S(=O)(=O)Nc2nccc(/C=C/c3ccccc3)n2)cc1,"35.5 µM [rising, single point]","6.31 µM [falling, single point]"
CCSC1=C(C#N)C2(CCCCC2)C(C#N)C(=O)N1 (stereo unspecified),,"8.91 µM [rising, partial curve]"
COCCCNCCOCCOc1ccc(Cl)cc1C(C)(C)C,"35.5 µM [rising, single point]","31.6 µM [rising, single point]"
OCCNc1nc(C2CC2)nc2c1nnn2Cc1ccccc1Cl,"35.5 µM [rising, single point]",
O=C(c1ccc2c(c1)CCCC2)N1CCN(c2nc3c(F)cccc3s2)CC1,,"0.178 µM [falling, full curve, poor fit]"
COc1ccc(N2C(=O)CC2(/C=C/c2ccccc2OC)C(=O)NC2CCCC2)cc1 (stereo unspecified),"22.4 µM [rising, partial curve, poor fit]",
CCOC(=O)c1ccccc1NC(=O)c1ccc2c(=O)n3c(nc2c1)CCCCC3,"22.4 µM [falling, single point]","22.4 µM [falling, single point]"
CCc1cccc(NC(=O)c2cc3c(=O)n(Cc4ccc(OC)cc4)ccc3nc2C)c1,,"0.00501 µM [falling, full curve, poor fit]"
Cc1ccc(Oc2ccccc2/C=N/O)cc1,"12.6 µM [rising, partial curve]",
CCN(CC(=O)Nc1ccccc1Br)C1CCCCC1,"0.2 µM [falling, full curve]","0.0224 µM [falling, full curve, poor fit]"
CCCCOc1ccc(C(=O)Nc2ccc(N3CCN(C(=O)C(C)C)CC3)cc2)cc1,"15.8 µM [rising, partial curve]",
Cn1cc(CC(=O)NCCN2CCOCC2)c2ccccc21,,"5.01 µM [rising, partial curve, poor fit]"
Cc1ccc(C(=O)N2NC(c3ccccc3F)C3C(=O)N(c4cccc(C)c4)C(=O)C32)cc1 (stereo unspecified),"15.8 µM [falling, partial curve]","5.01 µM [falling, full curve, poor fit]"
COc1ccc(C(=O)c2ccccc2)c2c(O)ccc(C(=O)c3ccccc3)c12,"2.82 µM [rising, full curve]",
CC1CCCN(CCOCCOc2ccc(Br)cc2Cl)C1 (stereo unspecified),"20 µM [rising, partial curve, poor fit]",

# Part of the list above, as tab-separated lines.
SMILES	AC50 [1]	AC50 [2]
CCOC(=O)c1ccccc1NC(=O)c1ccc2c(=O)n3c(nc2c1)CCCCC3	22.4 µM [falling, single point]	22.4 µM [falling, single point]
CCc1cccc(NC(=O)c2cc3c(=O)n(Cc4ccc(OC)cc4)ccc3nc2C)c1		0.00501 µM [falling, full curve, poor fit]

# (continued)

SMILES,AC50 [1],AC50 [2]
CC1Cc2ccccc2N1C(=O)COc1cccc(-n2cnnn2)c1 (stereo unspecified),"5.01 µM [rising, partial curve, poor fit]","0.282 µM [rising, full curve, poor fit]"
CN(C)C(=O)c1ccc(-c2ccc3ncnc(N4CCOCC4)c3c2)cc1,"11.2 µM [falling, partial curve]",
CCOc1ccccc1N1CCN(C(=O)c2cccc(-c3ccc(O)cc3)c2)CC1,"0.0891 µM [rising, full curve, poor fit]",
COc1cccc(NC(=O)C2CCC(CNS(=O)(=O)c3cccs3)CC2)c1 (stereo unspecified),,"0.708 µM [rising, single point]"
CCN(CC)c1ccc([C@H]2[C@@H]3CCCC[C@]3(O)CCN2CC(=O)NCc2ccco2)cc1,"2.24 µM [falling, partial curve, poor fit]",
CCn1c2ccccc2c2cc(/C=N/n3cnnc3)ccc21,"15.8 µM [rising, partial curve, poor fit]",
Cc1ccc(NC(=S)N(CCN(C)C)Cc2cccs2)cc1,"0.316 µM [falling, partial curve]","1.26 µM [falling, full curve]"
O=C(NCc1cccs1)c1ccc(Cn2c(SCc3cccc(F)c3)nc3cccnc32)cc1,,"35.5 µM [falling, partial curve, poor fit]"
CC[C@@H](C)[C@H](NC(=O)OC(C)(C)C)c1nnc(S(=O)(=O)Cc2cc(C)ccc2C)o1,"22.4 µM [rising, partial curve]",
O=C(/C=C/c1cccc(Br)c1)N1CCN(c2cccc(C(F)(F)F)c2)CC1,"31.6 µM [rising, single point]","35.5 µM [rising, single point]"
COC(=O)[C@@]1(Cc2ccc(F)cc2)[C@H]2c3cc(C(=O)N(C)C)n(Cc4ccccc4)c3C[C@H]2CN1C(=O)c1ccccc1,"20 µM [rising, single point]","10 µM [rising, partial curve]"
CCOC(=O)c1c(NC(=O)c2cc3nc(-c4ccc(OC)cc4)cc(C(F)(F)F)n3n2)sc2c1CCC(C)C2 (stereo unspecified),"0.447 µM [falling, full curve, poor fit]",
COc1cc(C2C=C(c3cccs3)Nc3ncnn32)cc(OC)c1OC (stereo unspecified),"1.12 µM [rising, full curve]",
O=S(=O)(NC1CCCCC1)c1cccc(-c2nnc(-c3ccccc3)o2)c1,"35.5 µM [rising, single point]",
CCN1C(=S)SC(=O)C1=C1C=C(C)N(CCOC)C(C)=C1,"10 µM [rising, partial curve, poor fit]",
c1nc(NC2CCCCC2)c2[nH]cnc2n1,"35.5 µM [rising, single point]",
Cc1ccc(NC(=O)C(=O)NNC(=O)c2ccccc2C)cc1Cl,"12.6 µM [falling, single point]",
Cc1ccc(N(C)S(=O)(=O)c2cccc(C(=O)Nc3nc4ccccc4[nH]3)c2)cc1,"35.5 µM [rising, partial curve, poor fit]",
Cc1cccc(NC(=O)c2sc(-n3nc(C)c(Cc4ccc5c(c4)OCO5)c3C)nc2C)c1C,"5.62 µM [rising, single point]","5.62 µM [rising, single point]"

SMILES,AC50 [1],AC50 [2]
O=C(/C=C\c1cn(-c2ccccc2)nc1-c1ccc2c(c1)OCCO2)N1CCOCC1,,"0.02 µM [falling, full curve, poor fit]"
COCc1cc(C)n(CC(=O)N/N=C/c2ccc(-c3ccc(Cl)c(C(=O)O)c3)o2)c(=O)c1C#N,,"0.631 µM [rising, full curve, poor fit]"
CCN(CC)CCNC(=S)Nc1ccc2nc3n(c(=O)c2c1)CCCCC3,"0.00316 µM [falling, full curve, poor fit]",
C=CCn1nc([N+](=O)[O-])nc1Sc1cccc2cccnc12,"11.2 µM [rising, partial curve]","5.01 µM [rising, partial curve]"
COC(=O)c1c(NC(=O)C2C3CCC(O3)C2C(=O)O)sc2c1CCCCCC2 (stereo unspecified),"12.6 µM [rising, partial curve]",
COc1ccc2[nH]cc(CCNc3ncncc3-c3ccccc3Cl)c2c1,"35.5 µM [falling, single point]","12.6 µM [falling, partial curve]"
O=C(c1ccco1)N1CCN(C(=O)C2CC2)CC1,"0.01 µM [falling, full curve, poor fit]",
Cn1c(COc2ccc3ccccc3c2)nnc1SCC(=O)O,,"0.2 µM [rising, single point]"
CN(C)c1ccc(Nc2c3c4c(cccc4n(C)c2=O)C(=O)c2ccccc2-3)cc1,"4.47 µM [rising, partial curve]","0.0316 µM [falling, full curve, poor fit]"
Clc1ccc(CCNc2nc3ccccc3s2)cc1,,"12.6 µM [falling, partial curve]"
CCOC(=O)NC(=O)CSc1nc2ccc(C)cc2[nH]1,,"35.5 µM [rising, single point]"
O=C(NCc1ccco1)c1nc2c(nnn2Cc2ccccc2Cl)c(=O)[nH]1,"2.82 µM [rising, partial curve]",
CCOC(=O)Nc1ccc2c(c1)N(C(=O)CCN(C)C)c1ccccc1S2,"25.1 µM [falling, single point]","17.8 µM [falling, partial curve]"
Cn1cc(-c2ccccc2)cc(C#N)c1=O,,"0.158 µM [rising, partial curve, poor fit]"
CN1C(=O)C(Cl)(Cl)C(=O)c2ccccc21,"35.5 µM [rising, single point]","35.5 µM [rising, single point]"
O=C(COC(=O)c1ccc([N+](=O)[O-])o1)c1ccccc1,"0.0398 µM [falling, full curve, poor fit]","0.00708 µM [falling, full curve, poor fit]"
CCCc1cc(C(=O)NNC(=S)NCc2ccccc2)cs1,"35.5 µM [rising, single point]","12.6 µM [rising, single point]"
O=C(/C=C/c1ccccc1F)c1cccc([N+](=O)[O-])c1,"11.2 µM [rising, partial curve]","3.98 µM [rising, full curve]"
